The results in this text go back to PMC5078803.

Chains of the proteins cited; added tags and fusions are not shown. Lines headed by an entry give the natural chain unless they say otherwise; changes in a name come on top.
UniProt Q386R9: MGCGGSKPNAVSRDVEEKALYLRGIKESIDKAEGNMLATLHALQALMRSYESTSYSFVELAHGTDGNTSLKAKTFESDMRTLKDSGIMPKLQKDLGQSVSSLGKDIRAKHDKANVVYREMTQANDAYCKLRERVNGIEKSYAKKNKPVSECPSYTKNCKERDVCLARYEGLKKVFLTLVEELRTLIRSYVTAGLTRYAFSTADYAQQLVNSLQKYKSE
UniProt Q382I7: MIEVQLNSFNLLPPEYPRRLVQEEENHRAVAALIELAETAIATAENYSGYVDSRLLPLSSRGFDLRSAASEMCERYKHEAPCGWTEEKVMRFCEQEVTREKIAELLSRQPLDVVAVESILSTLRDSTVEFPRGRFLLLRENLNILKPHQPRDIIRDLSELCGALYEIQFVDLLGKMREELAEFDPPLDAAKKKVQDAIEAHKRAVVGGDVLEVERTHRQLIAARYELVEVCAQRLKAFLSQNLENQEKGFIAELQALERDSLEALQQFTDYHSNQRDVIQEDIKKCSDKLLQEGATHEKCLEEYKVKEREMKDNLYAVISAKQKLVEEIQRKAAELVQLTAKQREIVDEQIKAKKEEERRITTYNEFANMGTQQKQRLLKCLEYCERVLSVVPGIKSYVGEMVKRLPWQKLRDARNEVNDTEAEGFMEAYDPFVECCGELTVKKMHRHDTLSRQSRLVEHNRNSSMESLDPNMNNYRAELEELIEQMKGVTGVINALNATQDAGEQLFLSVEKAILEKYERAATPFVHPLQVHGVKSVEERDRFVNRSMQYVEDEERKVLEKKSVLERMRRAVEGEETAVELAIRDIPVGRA

In this assay the target is TbFlabarin-like (TbFlabarinL, Tb927.11.2400) (Trypanosoma brucei (endogenous in BSF cells)) (UniProt Q386R9). As to the kind of experiment: affinity purification with mass spectrometry; polyclonal anti-TbFlabarinL antibody on protein G Sepharose beads; lysates of WT and ∆TbFlabarinL (control) BSF cells, four biological replicates each; IP buffer 150 mM NaCl, 20 mM Tris-HCl pH 8, 10 mM MgCl2, 0.25% IGEPAL, 1 mM DTT; overnight, 4 °C; label-free quantitative mass spectrometry.

No constants are given. Whether binding was seen depends on the method and setting. Binding seen in cells or lysates may run through a third protein. These calls come from enrichment with a bait or labelling near it, and not all partners need be listed.

Turning to “PAR1 (Tb927.11.13500), paraflagellar rod component (from UniProt Q382I7)”, the binding result was “binds”.
